# This is one part of the list. Further columns of the screen follow, without active or inactive calls. Compounds called inactive in the main read-out are mostly missing here. Potencies come from curve fits of mixed quality, noted in brackets.
# Experiment: qHTS Assay for Modulators of Lamin A Splicing
# Details: HeLa LMNA splicing GFP/RFP minigene ratio, 48 h
# Procedure, shortened: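 S3 HeLa stable clones carrying a lamin A-EGFP splicing minigene plus DsRed2 were seeded at 600 cells/well in Opti-MEM with 2% FBS, pin-dosed and incubated 48 h at 37°C. Acumen cytometry (488 nm) gave the GFP/RFP total-intensity ratio.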
# [1] = measured here: RFP viability control channel
# [2] = measured here: GFP splicing reporter channel
Structure (SMILES),AC50 [1],AC50 [2]
Cc1nc(SCC(=O)c2cccs2)c2oc3ccccc3c2n1,"31.6 µM [rising, single point]",–
COc1ccc(NC(=O)C(C)SCc2ccccc2)cc1OC (stereo not drawn),"35.5 µM [rising, single point]",–
COc1ccc(N=Cc2c(O)n(-c3cccc(C)n3)c(=O)c3ccccc23)cc1,–,"28.2 µM [rising, single point]"
O=C(CSc1nc(=O)n(Cc2ccco2)c2c1CCC2)NCc1ccc(F)cc1,"15.8 µM [rising, single point]","11.2 µM [rising, partial curve]"
O=C(Nc1ccc(N=Nc2ccccc2)c(NC(=O)C2CCCO2)c1)C1CCCO1 (stereo not drawn),"10 µM [rising, partial curve]",–
COc1cccc(C2=CC(c3ccc(N(C)C)cc3)n3nnnc3N2)c1 (stereo not drawn),"15.8 µM [rising, partial curve]","11.2 µM [rising, partial curve]"
CCOC(C)=O,"0.141 µM [rising, full curve, poor fit]","0.002 µM [rising, full curve, poor fit]"
Fc1ccc(F)c(C2=NNC(=NCC3CCCO3)SC2)c1 (stereo not drawn),"35.5 µM [rising, single point]",–
COc1cccc(-c2nc(NCc3ccc(OC)cc3OC)c3ccccc3n2)c1,–,"12.6 µM [falling, single point]"
O=C(NC1CC(=O)N(c2ccc(Cl)cc2)C1)c1cccs1 (stereo not drawn),"0.0251 µM [falling, full curve, poor fit]",–
O=C(NC1(C(F)(F)F)NC(=O)N(C2CCCCC2)C1=O)c1ccco1 (stereo not drawn),–,"0.2 µM [rising, full curve, poor fit]"
CCCCn1c(=S)[nH]c2ccccc2c1=O,–,"0.158 µM [rising, partial curve, poor fit]"
N#CCCn1c(=O)c(-c2ccc(Cl)cc2)nc2cnc(N3CCNCC3)nc21,"15.8 µM [falling, partial curve]","22.4 µM [falling, single point]"
O=c1[nH]c2cc([N+](=O)[O-])c([N+](=O)[O-])cc2[nH]c1=O,"0.0316 µM [rising, partial curve]","5.62 µM [falling, partial curve, poor fit]"
CCN1C(=S)SC(=O)C1=C1C=C(C)N(Cc2ccco2)C(C)=C1,"14.1 µM [rising, partial curve]","20 µM [rising, partial curve, poor fit]"
O=C(c1ccccc1F)N1CCN(S(=O)(=O)c2ccc3c(c2)OCCO3)CC1,"15.8 µM [rising, partial curve]",–
CC(C)CC(C(=O)NC1CCCC1)N(Cc1ccc2c(c1)OCO2)C(=O)c1snc(C(N)=O)c1N (stereo not drawn),"15.8 µM [rising, single point]","12.6 µM [rising, partial curve]"
CCOc1ccc(S(=O)(=O)NC(C)(C)C)cc1-c1nc2c(C(C)(C)C)nn(C)c2c(=O)[nH]1,"25.1 µM [falling, single point]","31.6 µM [falling, single point]"

# Arranged by molecular weight (rising): part of the list above
Structure (SMILES),AC50 [1],AC50 [2]
CCCCn1c(=S)[nH]c2ccccc2c1=O,–,"0.158 µM [rising, partial curve, poor fit]"
O=C(NC1CC(=O)N(c2ccc(Cl)cc2)C1)c1cccs1 (stereo not drawn),"0.0251 µM [falling, full curve, poor fit]",–
COc1ccc(NC(=O)C(C)SCc2ccccc2)cc1OC (stereo not drawn),"35.5 µM [rising, single point]",–
CCN1C(=S)SC(=O)C1=C1C=C(C)N(Cc2ccco2)C(C)=C1,"14.1 µM [rising, partial curve]","20 µM [rising, partial curve, poor fit]"
O=C(NC1(C(F)(F)F)NC(=O)N(C2CCCCC2)C1=O)c1ccco1 (stereo not drawn),–,"0.2 µM [rising, full curve, poor fit]"
COc1ccc(N=Cc2c(O)n(-c3cccc(C)n3)c(=O)c3ccccc23)cc1,–,"28.2 µM [rising, single point]"
N#CCCn1c(=O)c(-c2ccc(Cl)cc2)nc2cnc(N3CCNCC3)nc21,"15.8 µM [falling, partial curve]","22.4 µM [falling, single point]"
O=C(Nc1ccc(N=Nc2ccccc2)c(NC(=O)C2CCCO2)c1)C1CCCO1 (stereo not drawn),"10 µM [rising, partial curve]",–
O=C(CSc1nc(=O)n(Cc2ccco2)c2c1CCC2)NCc1ccc(F)cc1,"15.8 µM [rising, single point]","11.2 µM [rising, partial curve]"
CC(C)CC(C(=O)NC1CCCC1)N(Cc1ccc2c(c1)OCO2)C(=O)c1snc(C(N)=O)c1N (stereo not drawn),"15.8 µM [rising, single point]","12.6 µM [rising, partial curve]"

# Carrying on.

Structure (SMILES),AC50 [1],AC50 [2]
O=S(=O)(c1ccc(-c2csc(Nc3ccc(F)cc3)n2)cc1)N1CCCC1,"5.62 µM [rising, partial curve]","1.58 µM [rising, full curve, poor fit]"
CN(NC(=O)c1ccccc1)c1ncc(C(F)(F)F)cc1Cl,"0.00398 µM [falling, full curve, poor fit]",–
Clc1ccc(OCc2nn3c(-c4ccco4)nnc3s2)cc1,"17.8 µM [rising, single point]",–
Cc1ccc2c(=O)c(C(=O)c3ccccc3)cn(CC(=O)Nc3ccccc3)c2n1,–,"0.00316 µM [rising, full curve, poor fit]"
O=C(c1ccccc1)C(O)c1ccccc1 (stereo not drawn),"12.6 µM [rising, single point]",–
CCOC(=O)N1CCN(S(=O)(=O)c2ccc(F)c(C(=O)Nc3ccc(C)c(Cl)c3)c2)CC1,"35.5 µM [rising, single point]","17.8 µM [rising, single point]"
COc1ccccc1NC(=O)/C(C#N)=C/C=C/c1ccco1,"2 µM [rising, full curve, poor fit]",–
CCOC(=O)C(Cc1c[nH]c2ccccc12)NC(=O)COc1ccc(Cl)cc1 (stereo not drawn),"0.447 µM [falling, partial curve, poor fit]","20 µM [falling, single point]"
COCCN(CCOC)C(=O)c1cc2c(=O)n3ccccc3nc2n1C,–,"0.0224 µM [rising, full curve]"
COc1cc(C2NC(=O)NC(C)=C2C(=O)OCC2CCCO2)cc(OC)c1OC (stereo not drawn),"0.00501 µM [falling, full curve, poor fit]",–
Cc1[nH]c2ccccc2c1CCN(Cc1cccnc1)C(=S)Nc1ccc(F)cc1,–,"1.26 µM [rising, single point]"
Cc1ccc(NC(=S)NC(NC(=O)c2ccccc2)C(Cl)(Cl)Cl)c(C)c1 (stereo not drawn),"31.6 µM [rising, single point]",–
O=C(/C=C/c1ccc(S(=O)(=O)N2CCOCC2)cc1)NCc1ccccc1Cl,"20 µM [rising, single point]",–
O=c1cc(-c2ccc(O)cc2)oc2ccc(O)cc12,"3.16 µM [rising, single point]","3.16 µM [rising, partial curve, poor fit]"
COc1ccc(C2CC(=O)c3cnc(N4CCN(Cc5ccccc5)CC4)nc3C2)cc1 (stereo not drawn),"31.6 µM [rising, single point]",–
O=C(NCCCN1CCCCC1)c1cc(Sc2ccc(Cl)cc2)nc2ccccc12,–,"0.00316 µM [falling, full curve, poor fit]"
Cc1ccc(S(=O)(=O)N2CCC(C(=O)N[C@H](C(=O)NCc3ccco3)C(C)C)CC2)cc1,"4.47 µM [falling, partial curve, poor fit]",–
Cc1c(C#N)c2ccccc2n1CC(=O)N1CCCC1,"35.5 µM [rising, single point]",–

# — PubChem BioAssay AID1487 (National Center for Advancing Translational Sciences (NCATS), 2009)
